For at least one entry, the source does not settle the construct or the ends of the probe. For part of these data: A weaker result is weaker than the reference pair of the same experiment. For part of these data: At least one verdict rests on a figure or table, not on a statement of the authors.
Key:
[1] = system: BmeDI (Bacillus megaterium (DSM 319)); test: EMSA; conditions: pH 8.3, 5 mM Ca2+, 5hmC at position 9 of strand 2, EMSA: 40 mM Tris-acetate pH 8.3 or 30 mM Mes-histidine pH 6.3 (pH at 25°C), 5 mM Ca-acetate (or 1 mM EDTA), 0.1 mg/ml BSA, 10% glycerol, 15 min, DNA 1-100 nM, recombinant protein, label: 5'-33P
[2] = system: BmeDI (Bacillus megaterium (DSM 319)); test: KMnO4 footprinting; conditions: recombinant protein, label: 5'-33P
[3] = no difference from 39-H/H shown

“CGACGATACTTACCGGATAAGGCGCAATTAGATTACTTC (double strand) [39-C/H]”: binds [1, 3].

“CGACGATACTTACCGGATAAGGCGCAATTAGATTACTTC (double strand) [39-H/H]”: binds ([1]; 5hmC at position 9 of strand 1).

“CGACGATACTTACCGGATAAGGCGCAATTAGATTACTTC (double strand) [39-M/H]”: binds ([1]; no difference from 39-H/H shown, 5mC at position 9 of strand 1).

“CGACGATATTTACCGGATAAGGCGCAATTAAATTACTTC / GAAGTAATTTAATTGCGCCTTATCCGGTAAGTATCGTCG [39-T]”: binds more weakly ([2]; almost no T hyper-reactivity).

“CGACGATATTTACCGGATAAGGCGCAATTAGATTACTTC (double strand) [39-H]”: binds [1, 3].

“CGACGATATTTACCGGATAAGGCGCAATTAGATTACTTC / GAAGTAATCTAATTGCGCCTTATCCGGTAAGTATCGTCG [39-T/H]”: binds ([2]; T hyper-reactivity less pronounced but detectable, 5hmC at position 9 of strand 2).
